We go through 2 molecules from article PMC5493624.

The chains behind the UniProt entries cited, without tags or fusion partners.
UniProt Q9R1E0: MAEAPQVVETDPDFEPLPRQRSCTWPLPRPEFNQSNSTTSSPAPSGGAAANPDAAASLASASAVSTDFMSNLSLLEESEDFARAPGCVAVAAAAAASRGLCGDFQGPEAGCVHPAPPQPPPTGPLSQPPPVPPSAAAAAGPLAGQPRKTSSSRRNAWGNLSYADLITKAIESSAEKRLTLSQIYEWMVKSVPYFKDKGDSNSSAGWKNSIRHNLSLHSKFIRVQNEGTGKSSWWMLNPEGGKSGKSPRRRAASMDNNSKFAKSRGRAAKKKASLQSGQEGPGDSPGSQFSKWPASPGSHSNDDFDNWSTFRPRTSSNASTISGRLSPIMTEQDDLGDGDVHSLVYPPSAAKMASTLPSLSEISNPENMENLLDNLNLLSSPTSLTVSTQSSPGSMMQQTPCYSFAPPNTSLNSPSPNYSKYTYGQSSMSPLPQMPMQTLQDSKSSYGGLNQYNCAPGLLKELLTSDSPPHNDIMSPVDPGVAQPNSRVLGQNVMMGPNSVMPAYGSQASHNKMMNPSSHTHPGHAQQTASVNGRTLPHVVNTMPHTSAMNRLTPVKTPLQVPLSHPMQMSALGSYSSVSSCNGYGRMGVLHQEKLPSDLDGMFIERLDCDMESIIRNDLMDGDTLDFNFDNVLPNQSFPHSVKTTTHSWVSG

For this experiment, the target named is Forkhead box O1 (mouse (endogenous in HEI-OC1)) (UniProt Q9R1E0). Put plainly: co-IP; HEI-OC1 cells treated with 50 µg/ml tunicamycin for 24 h, lysed in RIPA buffer with protease inhibitor; lysate incubated overnight at 4 °C with first antibody, Dynabeads Protein G 90 min, 3 washes, Western blot; precipitating antibody not named. A general note: In western blotting, separated proteins are transferred to a membrane and probed.

These are yes or no findings as the source states them, for the method shown. In cells and extracts the contact can be indirect. Some results given as binding are weak or reduced against the parent protein; the word gives no strength.

B1: X-box-binding protein 1 spliced (protein, UniProt O35426-2 1-371)
chain: MVVVAAAPSAATAAPKVLLLSGQPASGGRALPLMVPGPRAAGSEASGTPQARKRQRLTHLSPEEKALRRKLKNRVAAQTARDRKKARMSELEQQVVDLEEENHKLQLENQLLREKTHGLVVENQELRTRLGMDTLDPDEVPEVEAKGSGVRLVAGSAESAAGAGPVVTSPEHLPMDSDTVASSDSESDILLGILDKLDPVMFFKCPSPESASLEELPEVYPEGPSSLPASLSLSVGTSSAKLEAINELIRFDHVYTKPLVLEIPSETESQTNVVVKIEEAPLSSSEEDHPEFIVSVKKEPLEDDFIPELGISNLLSSSHCLRPPSCLLDAHSDCGYEGSPSPFSDMSSPLGTDHSWEDTFANELFPQLISV
As to B1, the binding result was “binds”.

B2: X-box-binding protein 1 unspliced (protein, UniProt O35426-1 1-267)
chain: MVVVAAAPSAATAAPKVLLLSGQPASGGRALPLMVPGPRAAGSEASGTPQARKRQRLTHLSPEEKALRRKLKNRVAAQTARDRKKARMSELEQQVVDLEEENHKLQLENQLLREKTHGLVVENQELRTRLGMDTLDPDEVPEVEAKGSGVRLVAGSAESAALRLCAPLQQVQAQLSPPQNIFPWTLTLLPLQILSLISFWAFWTSWTLSCFSNVLPQSLLVWRNSQRSTQKDLVPYQPPFLCQWGPHQPSWKPLMNSFVLTMYTPSL
Regarding B2, the binding entry was “binds”.
